Laboratory results: PubChem BioAssay AID1259254 (NCATS, 2017)
The whole screen tested about 59,000 reagents; below is a random part of them. Over the whole deposit, about 1,550 (2.6%) are marked active. 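G2 share is only a proxy for re-replication; each gene was hit by three separate siRNAs, and active genes were retested.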 Not all columns of the deposit are shown. The record does not give: the amount of reagent.

Aim: 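Gene knock-downs that lead to re-replication, shown by excess G2 DNA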 (primary screen)
Cell system: human HCT116 colorectal cancer cells
Reagent: single siRNA against human genes
Duration: 3 days
Measurement: 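Imaged Hoechst DNA stain sorts each cell into a cycle phase by DNA amount; per plate, G2 fraction set to 0% for non-targeting and 100% for GMNN siRNA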
Direction: G2 robust z-score: higher = more G2 cells, more excess DNA replication
Hit rule: 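Active siRNAs have a G2 robust z of 5 or more median absolute deviations over the median, which in these data means about 38% or higher of GMNN control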

target | PubChem SID | G2 robust z-score | call
EDEM2 | SID160744230 | 8.6 | active
EDEM2 | SID160744231 | 0.618 | inactive
EDEM2 | SID160744232 | 2.82 | inactive
BMP1 | SID160728152 | -0.44 | inactive
BMP1 | SID160728163 | -0.68 | inactive
BMP1 | SID160728174 | 0.0237 | inactive
CBLL1 | SID160749661 | -0.684 | inactive
CBLL1 | SID160749662 | 0.853 | inactive
CBLL1 | SID160749663 | 1.83 | inactive
C9orf57 | SID160757580 | 1.63 | inactive
C9orf57 | SID160757581 | 10.3 | active
C9orf57 | SID160757582 | -0.59 | inactive
LOC441347 (retired record) | SID160725436 | -0.72 | inactive
LOC441347 (retired record) | SID160728013 | -0.537 | inactive
LOC441347 (retired record) | SID160728014 | 0.212 | inactive
GYG2 | SID160721115 | 2.03 | inactive
GYG2 | SID160721116 | -0.0311 | inactive
GYG2 | SID160721117 | -0.762 | inactive
CAMK2N2 | SID160754591 | 1.02 | inactive
CAMK2N2 | SID160754592 | -0.815 | inactive
CAMK2N2 | SID160754593 | -0.0824 | inactive
KIZ | SID160744535 | -1.5 | inactive
KIZ | SID160744536 | 0.461 | inactive
KIZ | SID160744537 | -0.923 | inactive
PCDHB14 | SID160731545 | 0.8 | inactive
PCDHB14 | SID160744810 | 5.83 | active
PCDHB14 | SID160744811 | -0.286 | inactive
FCGBP | SID160720986 | -0.632 | inactive
FCGBP | SID160720987 | -0.291 | inactive
FCGBP | SID160720988 | -0.46 | inactive

Look-ups from above.
Result of CAMK2N2 [SID160754593] under “G2 robust z-score”: -0.0824
Value for CBLL1 [SID160749663] under “G2 robust z-score”: 1.83
Entry of BMP1 [SID160728163] in “G2 robust z-score”: -0.68
For “call”, GYG2 [SID160721116] is entered as inactive
KIZ [SID160744535], call = inactive
Entry of CAMK2N2 [SID160754591] in “call”: inactive

More results:
target | PubChem SID | G2 robust z-score | call
BACC1 | SID160732402 | -0.93 | inactive
BACC1 | SID160756279 | -0.417 | inactive
BACC1 | SID160756280 | -0.509 | inactive
PFAS | SID160714134 | 1.76 | inactive
PFAS | SID160714135 | 0.568 | inactive
PFAS | SID160714136 | -1.14 | inactive
LCMT2 | SID160723213 | 3.02 | inactive
LCMT2 | SID160723214 | -0.258 | inactive
LCMT2 | SID160723215 | -0.422 | inactive
NUP188 | SID160736427 | -1.27 | inactive
NUP188 | SID160736428 | 0.223 | inactive
NUP188 | SID160736429 | -0.477 | inactive
SCN4A | SID160716396 | -0.768 | inactive
SCN4A | SID160716397 | 0.109 | inactive
SCN4A | SID160716398 | 6.21 | active
CITED4 | SID160732605 | 0.372 | inactive
CITED4 | SID160732606 | 0.187 | inactive
CITED4 | SID160760065 | -0.477 | inactive
NAALADL2 | SID160762228 | 1.75 | inactive
NAALADL2 | SID160762229 | -0.823 | inactive
NAALADL2 | SID160762230 | -0.0169 | inactive
LINC00200 | SID160766851 | 0.973 | inactive
LINC00200 | SID160766852 | -0.337 | inactive
LINC00200 | SID160766853 | -0.543 | inactive
TUBA3C-DT | SID160725845 | 0.323 | inactive
TUBA3C-DT | SID160725846 | 0.0584 | inactive
TUBA3C-DT | SID160769666 | -0.0481 | inactive
ACKR3 | SID160777911 | 0.984 | inactive
ACKR3 | SID160778014 | -0.346 | inactive
ACKR3 | SID160778113 | 0.0731 | inactive
PVR | SID160715457 | 0.64 | inactive
PVR | SID160715458 | 0.0298 | inactive
PVR | SID160715459 | -0.19 | inactive
USP7 | SID160719443 | -1.63 | inactive
USP7 | SID160719445 | 2.37 | inactive
USP7 | SID160719446 | -0.959 | inactive
LRRC71 | SID160758842 | -0.598 | inactive
LRRC71 | SID160758843 | 0.163 | inactive
LRRC71 | SID160758844 | 0.885 | inactive
OCIAD1 | SID160742550 | -0.754 | inactive
OCIAD1 | SID160742551 | 0.022 | inactive
OCIAD1 | SID160742552 | -0.0249 | inactive
NAAA | SID160738492 | -0.973 | inactive
NAAA | SID160738493 | -0.95 | inactive
NAAA | SID160738494 | -0.776 | inactive
WRNIP1 | SID160745238 | 2.43 | inactive
WRNIP1 | SID160745239 | -0.325 | inactive
WRNIP1 | SID160745240 | -1.08 | inactive
SERAC1 | SID160753015 | 2.8 | inactive
SERAC1 | SID160753016 | 0.836 | inactive
SERAC1 | SID160753017 | -0.142 | inactive
GRAP | SID160724289 | 0.229 | inactive
GRAP | SID160724290 | -1.04 | inactive
GRAP | SID160732291 | -0.501 | inactive
ZNF34 | SID160750563 | 0.074 | inactive
ZNF34 | SID160750565 | 3.32 | inactive
ZNF34 | SID160750566 | -1.1 | inactive
